Part of at least one peptide drawing is inferred or uncertain, most often the ends. Where no end group is shown, it is not given here.
Tested on: rat
Experiment: Water and electrolyte movements in ligated intestinal loops of the anaesthetised rat, peptides given by intravenous infusion
Format: in vivo
Settings: for Cl / Eau / Na: rat duodenal loop, i.v. infusion, 1 h contact, (-) absorption, (+) secretion, mean, groups of 8 or more
Experimental: Chez le rat privé d'aliment depuis 45 heures mais recevant de l'eau à volonté, une anesthésie est assurée par le pentobarbital sodique, un cathéter est placé sur une jugulaire, trois anses duodénale, jéjunale et iléale sont constituées entre deux ligatures. Un ml de solution test contenant 70 mM de NaCl, 5,2 mM de KCl, […] de CaCl₂, 10 mM de CO₃Na ET 136 mM de mannitol est instillé dans chaque anse, le PEG 4000 marqué au ³H est utilisé comme marqueur non absorbable, le ²²Na ou le ³⁶Cl comme marqueurs des flux bidirectionnels de sodium ou de chlore. La sorbine ou les peptides de synthèse sont administrés par voie veineuse dans du NaCl à 0,9%, à un débit de 3 ml/h. Après une heure de contact, le liquide restant dans la lumière de l'anse est collecté, le volume et les concentrations de Na, Ca, K, Cl et HCO₃ ainsi que la radioactivité liée au tritium, au chlore ou au sodium sont mesurés.
L'absorption est indiquée par un signe (-), la sécrétion par un signe (+). les résultats concernent des groupes de 8 animaux ou plus M ± SEM ^. P<0.05 ^..P<0.01

[1] = dose 64 pmol/100g, controls = 0
[2] = dose 50 pmol/100g, controls (TEMOINS) = 0
[3] = dose 12.5 pmol/100g, controls = 0

With `CC[C@H](C)[C@H](NC(=O)[C@H](Cc1ccc(O)cc1)NC(=O)[C@@H](NC(=O)[C@H](CCCNC(=N)N)NC(=O)[C@@H](N)CC(=O)O)C(C)C)C(=O)N[C@@H](Cc1c[nH]cn1)C(=O)N1CCC[C@H]1C(=O)N[C@@H](Cc1ccccc1)C(=O)O` [ANGIOTENSINE II, angiotensine II, reference compound] the Cl [1] was -42,8^. µeq, the Eau [1] was -0,29^. ml and the Na [1] was -43,8^. µeq.

With “PVTKPQA-NH2 [HEPTAPEPTIDE AMIDE, P.V.T.K.P.Q.A. - NH₂]” the Cl [2] was -37,2 µeq, the Eau [2] was -0,19 ml and the Na [2] was -32,6 µeq.

“HERPVTKPQA-NH2 [DECAPEPTIDE AMIDE, H.E.R.P.V.T.K.P.Q.A - NH₂]” was tested, and the Cl [3] was -43,1^.. µeq, the Eau [3] was -0,34^.. ml and the Na [3] was -48,5^.. µeq.

“PPDRKVDTRKFRSEPRSIFEYEPGKSSILQHERPVTKPQA-NH2” was tested, and the “activité sur l'absorption d'eau et des électrolytes” value (result in words, test not specified at that place) was “renferme l'activité de la molécule entière”.
